Test results as given in PMC4729957, “The Atg1–kinase complex tethers Atg9-vesicles to initiate autophagy” (Nature Communications, 2016).
No constants are given. Whether binding was seen depends on the method and setting. One block for each molecule: values may come before it.

Chains of the proteins cited; added tags and fusions are not shown. Lines headed by an entry give the natural chain unless they say otherwise; changes in a name come on top.
UniProt Q06628: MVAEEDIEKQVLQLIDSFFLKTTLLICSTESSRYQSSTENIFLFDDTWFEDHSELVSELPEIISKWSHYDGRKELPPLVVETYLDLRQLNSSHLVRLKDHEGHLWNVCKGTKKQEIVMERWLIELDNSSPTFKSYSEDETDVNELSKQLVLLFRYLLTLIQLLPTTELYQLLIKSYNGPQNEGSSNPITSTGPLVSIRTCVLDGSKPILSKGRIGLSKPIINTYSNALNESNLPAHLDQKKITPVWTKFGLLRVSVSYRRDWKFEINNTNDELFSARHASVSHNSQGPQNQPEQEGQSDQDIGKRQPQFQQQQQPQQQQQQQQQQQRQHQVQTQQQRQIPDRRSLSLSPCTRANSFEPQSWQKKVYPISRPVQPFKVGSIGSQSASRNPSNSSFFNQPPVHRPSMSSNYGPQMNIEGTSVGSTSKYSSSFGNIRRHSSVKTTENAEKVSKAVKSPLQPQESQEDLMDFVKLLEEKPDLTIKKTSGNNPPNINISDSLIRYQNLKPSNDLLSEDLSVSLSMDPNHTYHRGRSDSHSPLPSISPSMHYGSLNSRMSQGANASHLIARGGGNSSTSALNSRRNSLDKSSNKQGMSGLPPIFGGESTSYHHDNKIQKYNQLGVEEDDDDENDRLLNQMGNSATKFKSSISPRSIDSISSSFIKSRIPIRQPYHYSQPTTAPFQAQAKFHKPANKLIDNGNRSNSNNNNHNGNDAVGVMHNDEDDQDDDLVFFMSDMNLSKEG

Tests used:
[1] = target: T1, Atg17–Atg31–Atg29 trimeric complex (Atg17^TC) (S. cerevisiae) (UniProt Q06410+Q12421+Q12092); experiment: SEC; complexes assembled from purified subunits or subcomplexes, 30 min at room temperature, then gel filtration on Superose 6; both purified
T1 sequence 1: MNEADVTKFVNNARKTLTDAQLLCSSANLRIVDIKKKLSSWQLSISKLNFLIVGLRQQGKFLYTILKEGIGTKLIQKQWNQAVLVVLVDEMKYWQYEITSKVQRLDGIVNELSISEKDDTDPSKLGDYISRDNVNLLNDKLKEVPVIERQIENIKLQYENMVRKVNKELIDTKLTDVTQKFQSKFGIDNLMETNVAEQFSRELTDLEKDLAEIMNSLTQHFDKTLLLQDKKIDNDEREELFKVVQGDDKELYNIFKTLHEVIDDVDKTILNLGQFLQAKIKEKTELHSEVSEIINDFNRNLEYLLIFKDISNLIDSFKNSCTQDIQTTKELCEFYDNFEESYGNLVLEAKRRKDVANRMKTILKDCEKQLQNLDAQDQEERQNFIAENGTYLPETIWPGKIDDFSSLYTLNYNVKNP
T1 sequence 2: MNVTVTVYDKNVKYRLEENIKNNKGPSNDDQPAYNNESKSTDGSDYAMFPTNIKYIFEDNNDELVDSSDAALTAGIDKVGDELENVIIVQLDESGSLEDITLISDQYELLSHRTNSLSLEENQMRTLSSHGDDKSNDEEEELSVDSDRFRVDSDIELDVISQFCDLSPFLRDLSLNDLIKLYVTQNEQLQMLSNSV
T1 sequence 3: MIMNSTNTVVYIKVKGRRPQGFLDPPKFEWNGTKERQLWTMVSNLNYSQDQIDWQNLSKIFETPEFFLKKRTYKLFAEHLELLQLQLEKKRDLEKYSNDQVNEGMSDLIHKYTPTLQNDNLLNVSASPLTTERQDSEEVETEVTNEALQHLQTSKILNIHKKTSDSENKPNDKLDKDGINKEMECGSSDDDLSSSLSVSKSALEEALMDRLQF

[2] = target: monomeric Atg1^PC (Atg1^monoPC) (S. cerevisiae) (UniProt P53104+Q06628+Q06410+Q12421+Q12092); experiment: as above
[3] = target: Atg17^mono (Atg17^1–354) (S. cerevisiae) (UniProt Q06410); experiment: dynamic light scattering; Stokes radii (RH) of the purified proteins and complexes in solution; both purified
[4] = target: Atg17^1–354-Atg31–Atg29 (Atg17^monoTC) (S. cerevisiae) (UniProt Q06410+Q12421+Q12092); experiment: as above
[5] = target: T2, Atg1 (S. cerevisiae), P53104; experiment: SEC-MALS; Atg1 injected at 5 mg ml^−1, 50 μl, Superdex-200 Increase 10/300GL; both purified; conditions: remark: other sources report otherwise
T2 chain: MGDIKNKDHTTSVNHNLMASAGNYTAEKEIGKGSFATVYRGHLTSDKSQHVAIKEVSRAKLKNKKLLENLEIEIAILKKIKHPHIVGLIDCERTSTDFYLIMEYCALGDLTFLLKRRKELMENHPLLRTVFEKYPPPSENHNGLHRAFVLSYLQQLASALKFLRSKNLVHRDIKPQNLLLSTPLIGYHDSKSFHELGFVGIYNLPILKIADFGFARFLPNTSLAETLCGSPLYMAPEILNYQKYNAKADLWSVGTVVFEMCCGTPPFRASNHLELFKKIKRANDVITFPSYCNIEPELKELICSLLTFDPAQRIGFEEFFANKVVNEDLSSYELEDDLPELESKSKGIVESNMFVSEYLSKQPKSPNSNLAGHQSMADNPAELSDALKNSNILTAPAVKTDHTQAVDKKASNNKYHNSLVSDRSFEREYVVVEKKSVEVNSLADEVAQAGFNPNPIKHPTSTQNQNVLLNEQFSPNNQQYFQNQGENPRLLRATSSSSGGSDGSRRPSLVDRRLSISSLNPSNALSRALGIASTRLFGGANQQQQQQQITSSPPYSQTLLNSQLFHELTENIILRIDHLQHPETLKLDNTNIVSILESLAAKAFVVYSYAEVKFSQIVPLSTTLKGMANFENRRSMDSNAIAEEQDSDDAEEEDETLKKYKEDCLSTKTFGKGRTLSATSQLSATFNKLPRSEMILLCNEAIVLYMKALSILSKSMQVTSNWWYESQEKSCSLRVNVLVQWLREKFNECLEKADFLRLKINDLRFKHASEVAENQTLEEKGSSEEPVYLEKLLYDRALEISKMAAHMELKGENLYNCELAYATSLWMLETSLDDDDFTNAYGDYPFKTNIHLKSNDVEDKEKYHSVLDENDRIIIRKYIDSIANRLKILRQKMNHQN

Molecule: Atg1–Atg13^SD subcomplex (from UniProt P53104 1-897; Q06628 1-738)
binding [1]: no binding

B3: Atg1, P53104 1-897 (enzyme)
chain: MGDIKNKDHTTSVNHNLMASAGNYTAEKEIGKGSFATVYRGHLTSDKSQHVAIKEVSRAKLKNKKLLENLEIEIAILKKIKHPHIVGLIDCERTSTDFYLIMEYCALGDLTFLLKRRKELMENHPLLRTVFEKYPPPSENHNGLHRAFVLSYLQQLASALKFLRSKNLVHRDIKPQNLLLSTPLIGYHDSKSFHELGFVGIYNLPILKIADFGFARFLPNTSLAETLCGSPLYMAPEILNYQKYNAKADLWSVGTVVFEMCCGTPPFRASNHLELFKKIKRANDVITFPSYCNIEPELKELICSLLTFDPAQRIGFEEFFANKVVNEDLSSYELEDDLPELESKSKGIVESNMFVSEYLSKQPKSPNSNLAGHQSMADNPAELSDALKNSNILTAPAVKTDHTQAVDKKASNNKYHNSLVSDRSFEREYVVVEKKSVEVNSLADEVAQAGFNPNPIKHPTSTQNQNVLLNEQFSPNNQQYFQNQGENPRLLRATSSSSGGSDGSRRPSLVDRRLSISSLNPSNALSRALGIASTRLFGGANQQQQQQQITSSPPYSQTLLNSQLFHELTENIILRIDHLQHPETLKLDNTNIVSILESLAAKAFVVYSYAEVKFSQIVPLSTTLKGMANFENRRSMDSNAIAEEQDSDDAEEEDETLKKYKEDCLSTKTFGKGRTLSATSQLSATFNKLPRSEMILLCNEAIVLYMKALSILSKSMQVTSNWWYESQEKSCSLRVNVLVQWLREKFNECLEKADFLRLKINDLRFKHASEVAENQTLEEKGSSEEPVYLEKLLYDRALEISKMAAHMELKGENLYNCELAYATSLWMLETSLDDDDFTNAYGDYPFKTNIHLKSNDVEDKEKYHSVLDENDRIIIRKYIDSIANRLKILRQKMNHQN
modifications: here or on the partner: phosphothreonine at 226 (T226); phosphothreonine at 226 (T226)
binding [5]: no binding (tested: 5 mg ml^−1)

More lines, now with the values ahead:

binding [2]: no binding
Molecule: monomeric Atg1^PC (Atg1^monoPC) (from UniProt P53104 1-897; Q06628 1-738; Q06410 1-354; Q12421 1-196; Q12092 1-213) (complex)

binding [3]: no binding
B1: Atg17^mono (Atg17^1–354) (domain or fragment, UniProt Q06410 1-354)
chain: MNEADVTKFVNNARKTLTDAQLLCSSANLRIVDIKKKLSSWQLSISKLNFLIVGLRQQGKFLYTILKEGIGTKLIQKQWNQAVLVVLVDEMKYWQYEITSKVQRLDGIVNELSISEKDDTDPSKLGDYISRDNVNLLNDKLKEVPVIERQIENIKLQYENMVRKVNKELIDTKLTDVTQKFQSKFGIDNLMETNVAEQFSRELTDLEKDLAEIMNSLTQHFDKTLLLQDKKIDNDEREELFKVVQGDDKELYNIFKTLHEVIDDVDKTILNLGQFLQAKIKEKTELHSEVSEIINDFNRNLEYLLIFKDISNLIDSFKNSCTQDIQTTKELCEFYDNFEESYGNLVLEAKRRKD

binding [4]: no binding
B2: Atg17^1–354-Atg31–Atg29 (Atg17^monoTC) (complex, S. cerevisiae)
chain 1: MNEADVTKFVNNARKTLTDAQLLCSSANLRIVDIKKKLSSWQLSISKLNFLIVGLRQQGKFLYTILKEGIGTKLIQKQWNQAVLVVLVDEMKYWQYEITSKVQRLDGIVNELSISEKDDTDPSKLGDYISRDNVNLLNDKLKEVPVIERQIENIKLQYENMVRKVNKELIDTKLTDVTQKFQSKFGIDNLMETNVAEQFSRELTDLEKDLAEIMNSLTQHFDKTLLLQDKKIDNDEREELFKVVQGDDKELYNIFKTLHEVIDDVDKTILNLGQFLQAKIKEKTELHSEVSEIINDFNRNLEYLLIFKDISNLIDSFKNSCTQDIQTTKELCEFYDNFEESYGNLVLEAKRRKD
chain 2: MNVTVTVYDKNVKYRLEENIKNNKGPSNDDQPAYNNESKSTDGSDYAMFPTNIKYIFEDNNDELVDSSDAALTAGIDKVGDELENVIIVQLDESGSLEDITLISDQYELLSHRTNSLSLEENQMRTLSSHGDDKSNDEEEELSVDSDRFRVDSDIELDVISQFCDLSPFLRDLSLNDLIKLYVTQNEQLQMLSNSV
chain 3: MIMNSTNTVVYIKVKGRRPQGFLDPPKFEWNGTKERQLWTMVSNLNYSQDQIDWQNLSKIFETPEFFLKKRTYKLFAEHLELLQLQLEKKRDLEKYSNDQVNEGMSDLIHKYTPTLQNDNLLNVSASPLTTERQDSEEVETEVTNEALQHLQTSKILNIHKKTSDSENKPNDKLDKDGINKEMECGSSDDDLSSSLSVSKSALEEALMDRLQF
notes: Atg31, S. cerevisiae BY4741; Atg29, S. cerevisiae BY4741; source: E. coli Rosetta, co-expressed from pST39, purified (Ni-NTA, SEC); not shown: His6, N-terminal, cleaved; copies: + +
